Results published in PubChem BioAssay AID493014 (National Center for Advancing Translational Sciences (NCATS), 2011).
The list shows a part of the results. Further columns of the screen follow, without active or inactive calls. The list favours compounds with an active or inconclusive main result. Potencies come from curve fits of mixed quality, noted in brackets.

Assay: qHTS Assay to Find Inhibitors of Chronic Active B-Cell Receptor Signaling
Conditions: ABC-DLBCL IkBa-CBG/CBR reporter, luminescence ratio (green luciferase fused to IkBa over red control in TMD8 lymphoma cells), 4 h
Method in brief: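 Concentration-response series (up to 46 uM) were applied to TMD8 dual-reporter cells for 4 h at 37C with doxycycline. Green/red ratio, after filter-overlap correction, defined %Activity; red signal alone was normalised to basal cells and zero luminescence.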

[1] = measured here: CBR red luminescence, cell number
[2] = measured here: IkBa-CBG green luminescence

Row | SMILES | AC50 [1] | AC50 [2]
1 | COc1ccc(Cc2nnc(NC(=O)Nc3ccccc3F)s2)cc1OC | 15.8 µM [rising, single point] | 
2 | Cc1cccc(N2CCN(C(=O)c3ccc(CS(=O)(=O)c4ccccc4C)o3)CC2C)c1 (stereo not given) | 35.5 µM [falling, single point] | 3.55 µM [falling, full curve]
3 | Cn1cnc(C(=O)NCc2ccc(CNC(=O)OC(C)(C)C)cc2)c1C(=O)NCc1ccc(CNC(=O)OC(C)(C)C)cc1 | 0.731 µM [rising, full curve, poor fit] | 
4 | C=CCn1cccc(C(=O)Nc2ccc(SC)cc2)c1=O | 35.5 µM [falling, single point] | 
5 | COC(=O)c1ccc(-c2ccc(Cl)cc2)nc1C | 0.731 µM [rising, full curve] | 
6 | Cc1ccc(Nc2sc(C(=O)c3ccccc3)c(N)c2C(=O)Nc2ccc(Cl)cc2)cc1 | 28.2 µM [falling, single point] | 
7 | CC(=C1C(=O)c2ccccc2C1=O)N1CCC(C(N)=O)(N2CCCCC2)CC1 | 3.66 µM [rising, full curve] | 
8 | COc1ccc2c(c1OC)C(=O)OC2Nc1nc(-c2ccccc2)cs1 (stereo not given) | 18.4 µM [falling, partial curve, poor fit] | 9.2 µM [rising, partial curve, poor fit]
9 | COc1ccc(C2CC(C(C)(C)C)=NN2c2ccc(S(N)(=O)=O)cc2)cc1 (stereo not given) | 16.4 µM [rising, single point] | 
10 | O=C1OC(c2ccc(Br)cc2)=N/C1=C\c1ccco1 | 7.08 µM [falling, full curve] | 
11 | Cc1c2c(n3c(nc4ccccc43)c1C#N)N(c1ccccc1)CC2 | 18.4 µM [falling, partial curve] | 
12 | CCCCn1c(=O)[nH]c(=O)c2c1nc(-c1ccc([N+](=O)[O-])cc1)n2CC | 5.62 µM [rising, partial curve, poor fit] | 
13 | CCN(CC(=O)Nc1c(F)cccc1F)C(=O)c1ccc(S(=O)(=O)N2CCCCCC2)cc1 | 18.4 µM [rising, single point] | 
14 | C/C(CC(=O)Nc1cccc(C(F)(F)F)c1)=N\NC(=O)c1cnccn1 | 12.6 µM [falling, partial curve, poor fit] | 
15 | O=C1CCCCC1C(=O)c1cn(-c2ccc(Cl)c(Cl)c2)nn1 (stereo not given) | 0.631 µM [falling, full curve, poor fit] | 
16 | COc1ccc(C(=O)c2c(C)c3ccccc3n2CC(O)CNC(C)C)cc1 (stereo not given) | 23.1 µM [falling, single point] | 
17 | O=c1[nH]c(=O)n(-c2ccccc2)c2c1C(C(F)(F)F)(C(F)(F)F)N=C(C1CCCCC1)N2 | 5.8 µM [rising, full curve, poor fit] | 
18 | Clc1ccc(Cn2c(-c3cccnc3Cl)nc3ccccc32)c(Cl)c1 | 35.5 µM [falling, single point] | 
19 | Cc1nc(N2CCCCC2)c2c(C)c(C(=O)Nc3cccc(C(F)(F)F)c3)sc2n1 | 3.16 µM [rising, partial curve] | 
20 | CCc1ccc(OCCNc2cc(N3CCNC(C)C3)ccc2[N+](=O)[O-])cc1 (stereo not given) | 4.11 µM [rising, single point] | 
21 | CN(CC(=O)Nc1ccccc1Br)C(=O)Cn1[nH]c(=O)c2ccccc2c1=O | 6.51 µM [rising, single point] | 

Row | SMILES | AC50 [1] | AC50 [2]
22 | CSc1cccc(CNC(=O)C2CCC(=O)N(CC3CCCCC3)C2)c1 (stereo not given) | 25.1 µM [falling, single point] | 
23 | COc1ccc(NC(=O)N2CCCC2C(=O)Nc2ccc(C)c(Cl)c2)cc1 (stereo not given) | 3.16 µM [rising, partial curve, poor fit] | 
24 | COc1cccc(-c2nc(CS(=O)(=O)CC(=O)N3CCCCC3)c(C)o2)c1 | 35.5 µM [falling, partial curve, poor fit] | 
25 | c1ccc(-c2ccc(C3=Nn4c(nnc4-c4cc(-c5ccccc5)n[nH]4)SC3)cc2)cc1 | 6.31 µM [falling, partial curve, poor fit] | 
26 | O=C(Nc1cccc(C(F)(F)F)c1)Oc1ccccc1N1CCOCC1 | 12.6 µM [rising, partial curve] | 
27 | COC(=O)c1sccc1NC(=O)Nc1cccc(F)c1 | 11.2 µM [falling, partial curve, poor fit] | 
28 | CC(C)c1ccc(S(=O)(=O)N2CCN(C(=O)CN3C(=O)NC(C)(c4ccccc4)C3=O)CC2)cc1 (stereo not given) | 32.6 µM [falling, partial curve, poor fit] | 
29 | CN1C(=O)/C(=C2\SC(=S)N(NC(=O)c3cccnc3)C2=O)c2ccccc21 | 17.8 µM [falling, single point] | 
30 | CCOc1ccc(C(=O)Cn2cnc3ccccc3c2=O)cc1 | 0.112 µM [falling, full curve, poor fit] | 
31 | O=C(Nc1cc(Cl)cc(Cl)c1)c1coc(=O)c(Br)c1 | 35.5 µM [falling, single point] | 
32 | CCCCCCNC(=O)c1c(O)c2cccc3c2n(c1=O)CCC3 | 4.61 µM [rising, single point] | 
33 | COc1ccc(Br)cc1C(=O)Nc1cccc(NC(=O)c2ccco2)c1 | 11.2 µM [falling, partial curve] | 
34 | O=C(O)c1sccc1Oc1ccc(NS(=O)(=O)c2ccc(Cl)cc2)cc1 | 1.26 µM [rising, full curve] | 
35 | CNC(=O)NC(=O)C(C)OC(=O)c1oc2ccccc2c1CSc1ccc(Cl)cc1 (stereo not given) | 23.1 µM [rising, single point] | 
36 | Oc1ccc(/C=N/n2c3ccccc3c3ccccc32)cc1 | 6.51 µM [rising, single point] | 5.17 µM [falling, partial curve, poor fit]
37 | COc1ccc2c(=O)c(Oc3ccc(C(=O)O)cc3)c(C(F)(F)F)oc2c1 | 12.6 µM [falling, partial curve] | 
38 | COc1ccc(C(=O)NC(=S)N2CCC(C)CC2)cc1Br | 7.08 µM [rising, partial curve, poor fit] | 
39 | COc1ccc(S(=O)(=O)N2CN(Cc3ccco3)c3nc4ccccc4nc32)cc1 | 16.4 µM [falling, single point] | 
40 | Cc1c(C)n(CCCN(C)C)c2ncnc(Nc3ccc(F)cc3)c12 | 3.98 µM [falling, partial curve, poor fit] | 
41 | O=C(NC1CC1)c1ccc2c(c1)NC(=O)c1ccccc1S2 | 6.51 µM [rising, single point] | 
42 | CC12CCC3c4ccc(O)cc4CCC3C1CC(O)C2O (stereo not given) | 29.1 µM [rising, single point] | 

Among those listed so far, two contain two or more sulfur atoms:
Row | SMILES | AC50 [1] | AC50 [2]
29 | CN1C(=O)/C(=C2\SC(=S)N(NC(=O)c3cccnc3)C2=O)c2ccccc21 | 17.8 µM [falling, single point] | 
34 | O=C(O)c1sccc1Oc1ccc(NS(=O)(=O)c2ccc(Cl)cc2)cc1 | 1.26 µM [rising, full curve] | 

The list continues.

Row | SMILES | AC50 [1] | AC50 [2]
43 | O=C(CCN1C(=O)/C(=C/c2ccccc2Cl)SC1=S)NC1C=CS(=O)(=O)C1 (stereo not given) | 12.6 µM [falling, partial curve] | 
44 | CN(c1ccccc1C(=O)N1CCN(c2ccccc2F)CC1)S(=O)(=O)c1ccccc1 | 35.5 µM [falling, single point] | 
45 | Cc1cc(C)c2nc(N(CCCN(C)C)C(=O)c3ccc4c(c3)OCCO4)sc2c1 | 0.259 µM [falling, full curve, poor fit] | 
46 | O=C1CCCc2ccccc2N1Cc1ccccc1 | 3.55 µM [falling, partial curve, poor fit] | 
47 | COc1ccc(/C=N/NC(=O)c2ccn[nH]2)cc1COc1ccc(Cl)cc1Cl | 12.6 µM [falling, partial curve, poor fit] | 
48 | CCOC(=O)c1[nH]c(C(=O)O)c(OC(=O)CC)c1C | 25.1 µM [rising, single point] | 
49 | COC(=O)CSCC(=O)Nc1nnc(-c2ccccc2C)s1 | 6.31 µM [falling, partial curve] | 
50 | Cc1cc(C)c([C@@H]2C[C@H]3CN(C4CCCC4)C(=O)[C@]34CCCN24)c(-n2cccn2)c1 | 25.1 µM [rising, single point] | 
51 | COc1ccc(C(=O)COC(=O)c2ccc(Cl)nc2)c(OC)c1 | 25.9 µM [rising, single point] | 
52 | O=C(CCCCCN1C(=O)c2ccccc2C1=O)Oc1ccc2c3c(c(=O)oc2c1)CCC3 | 0.517 µM [rising, full curve, poor fit] | 
53 | O=C(CSc1nncn1-c1ccccc1)Nc1ccccc1F | 35.5 µM [falling, single point] | 
54 | O=C(Nc1ccc(-c2nc3ccccc3o2)c(O)c1)c1cc(-n2cnnc2)ccc1Cl | 25.9 µM [rising, partial curve, poor fit] | 
55 | CC(C)CN(CCCNC(=O)c1cc(=O)[nH]c2ccc(S(=O)(=O)N3CCCC3)cc12)CC(C)C | 3.16 µM [falling, partial curve, poor fit] | 
56 | CCn1c(=S)sc2c(=O)n(CC(=O)Nc3cccc(Br)c3)c(C)nc21 | 12.6 µM [falling, partial curve, poor fit] | 
57 | CC(=O)c1c(C)[nH]c(-c2ccccc2)c1C | 3.66 µM [rising, full curve] | 23.1 µM [falling, single point]
58 | c1ccc(-c2nnc(CN3CCCCC3)o2)cc1 | 35.5 µM [falling, single point] | 
59 | O=C(NCc1ccco1)C1CCC(CNS(=O)(=O)c2cccc3cccnc23)CC1 (stereo not given) | 0.00651 µM [falling, full curve, poor fit] | 
60 | CCCCN(C(=O)c1cc2c(s1)CCC2)c1c(N)n(CC(C)C)c(=O)[nH]c1=O | 32.6 µM [rising, single point] | 
61 | CCOC(=O)c1cnn(-c2ccc(Cl)cc2)c1C1CCN(C(=O)OC(C)(C)C)CC1 | 23.1 µM [rising, single point] | 

Full records, looked up by structure.
CC(C)CN(CCCNC(=O)c1cc(=O)[nH]c2ccc(S(=O)(=O)N3CCCC3)cc12)CC(C)C is listed with AC50 [1]: 3.16 µM [falling, partial curve, poor fit]
O=C(NCc1ccco1)C1CCC(CNS(=O)(=O)c2cccc3cccnc23)CC1 (stereo not given) is listed with AC50 [1]: 0.00651 µM [falling, full curve, poor fit]
